Values from PubChem BioAssay AID1259308 (NCATS, 2017).
In all, the deposit lists about 59,000 reagents; shown is an unselected part. About 1,510 of them (2.6%) were called active. 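Calls use total luciferase alone and ignore viability, so some active siRNAs may act by altering cell number.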 The numbers tell different reagents against one gene apart. Not all columns of the deposit are shown.

Aim: 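Candidate targets for better recombinant protein yield in mammalian cells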 (primary screen)
System: human HEK293 embryonic kidney cells stably expressing firefly luciferase (HEK-CMV-Luc2-Hygro)
Knock-down reagent: single siRNA against human genes, 0.8 pmol siRNA per well
Timing: 72 h
Read-out: 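Reporter luminescence and viable-cell signal on separate replicate plates, given as percent of non-targeting control and median/MAD z-scores, plus per-cell luciferase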
Direction: total luciferase, z-score: higher = more reporter protein produced
Call rule: 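Active when the median/MAD z-score for overall luciferase is greater than 3; a gene was taken forward for validation with new siRNAs if at least two of its three siRNAs passed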
Calls: active = raised luciferase; inactive = no rise

| gene knocked down | siRNA no. | total luciferase, z-score | Call |
| --- | --- | --- | --- |
| TMPRSS15 (transmembrane serine protease 15) | 1 | 0.742 | inactive |
| TMPRSS15 (transmembrane serine protease 15) | 2 | 0.549 | inactive |
| TMPRSS15 (transmembrane serine protease 15) | 3 | -0.39 | inactive |
| OLIG3 (oligodendrocyte transcription factor 3) | 1 | -0.747 | inactive |
| OLIG3 (oligodendrocyte transcription factor 3) | 2 | 0.115 | inactive |
| OLIG3 (oligodendrocyte transcription factor 3) | 3 | 0.799 | inactive |
| FGD3 (FYVE, RhoGEF and PH domain containing 3) | 1 | -0.218 | inactive |
| FGD3 (FYVE, RhoGEF and PH domain containing 3) | 2 | 0.965 | inactive |
| FGD3 (FYVE, RhoGEF and PH domain containing 3) | 3 | -0.223 | inactive |
| TRIB3 (tribbles pseudokinase 3) | 1 | -0.0994 | inactive |
| TRIB3 (tribbles pseudokinase 3) | 2 | -0.671 | inactive |
| TRIB3 (tribbles pseudokinase 3) | 3 | -0.805 | inactive |
| EIF3D (eukaryotic translation initiation factor 3 subunit D) | 1 | -0.617 | inactive |
| EIF3D (eukaryotic translation initiation factor 3 subunit D) | 2 | -1.78 | inactive |
| EIF3D (eukaryotic translation initiation factor 3 subunit D) | 3 | -1.51 | inactive |
| CASQ1 (calsequestrin 1) | 1 | 0.85 | inactive |
| CASQ1 (calsequestrin 1) | 2 | -0.617 | inactive |
| CASQ1 (calsequestrin 1) | 3 | 0.442 | inactive |
| FUNDC2 (FUN14 domain containing 2) | 1 | -2.61 | inactive |
| FUNDC2 (FUN14 domain containing 2) | 2 | -0.0222 | inactive |
| FUNDC2 (FUN14 domain containing 2) | 3 | 3.69 | active |
| TMEM231 (transmembrane protein 231) | 1 | 0.821 | inactive |
| TMEM231 (transmembrane protein 231) | 2 | -0.242 | inactive |
| TMEM231 (transmembrane protein 231) | 3 | 0.614 | inactive |
| PDE4DIP (phosphodiesterase 4D interacting protein) | 1 | -1.16 | inactive |
| PDE4DIP (phosphodiesterase 4D interacting protein) | 2 | 0.0548 | inactive |
| PDE4DIP (phosphodiesterase 4D interacting protein) | 3 | 1.93 | inactive |
| MARS1 (methionyl-tRNA synthetase 1) | 1 | 0.0652 | inactive |
| MARS1 (methionyl-tRNA synthetase 1) | 2 | 1.83 | inactive |
| MARS1 (methionyl-tRNA synthetase 1) | 3 | 0.19 | inactive |
| MUC19 (mucin 19, oligomeric (gene/pseudogene)) | 1 | 0.396 | inactive |
| MUC19 (mucin 19, oligomeric (gene/pseudogene)) | 2 | 0.884 | inactive |
| MUC19 (mucin 19, oligomeric (gene/pseudogene)) | 3 | 0.171 | inactive |
| MUC19 (mucin 19, oligomeric (gene/pseudogene)) | 4 | 0.0552 | inactive |
| MUC19 (mucin 19, oligomeric (gene/pseudogene)) | 5 | -0.198 | inactive |
| MUC19 (mucin 19, oligomeric (gene/pseudogene)) | 6 | 0.509 | inactive |
| MASTL (microtubule associated serine/threonine kinase like) | 1 | -0.98 | inactive |
| MASTL (microtubule associated serine/threonine kinase like) | 2 | -0.726 | inactive |
| MASTL (microtubule associated serine/threonine kinase like) | 3 | -0.537 | inactive |
| IFITM2 (interferon induced transmembrane protein 2) | 1 | 0.605 | inactive |
| IFITM2 (interferon induced transmembrane protein 2) | 2 | -1.97 | inactive |
| IFITM2 (interferon induced transmembrane protein 2) | 3 | 1.87 | inactive |
| ANKRD36BP2 (ankyrin repeat domain 36B pseudogene 2) | 1 | -0.482 | inactive |
| ANKRD36BP2 (ankyrin repeat domain 36B pseudogene 2) | 2 | -0.849 | inactive |
| ANKRD36BP2 (ankyrin repeat domain 36B pseudogene 2) | 3 | -0.688 | inactive |
| COPG2 (coat protein complex I subunit gamma 2) | 1 | -0.89 | inactive |
| COPG2 (coat protein complex I subunit gamma 2) | 2 | 0.914 | inactive |
| COPG2 (coat protein complex I subunit gamma 2) | 3 | 1.57 | inactive |
| ALKAL1 (ALK and LTK ligand 1) | 1 | -0.281 | inactive |
| ALKAL1 (ALK and LTK ligand 1) | 2 | -1.82 | inactive |
| ALKAL1 (ALK and LTK ligand 1) | 3 | -0.0756 | inactive |
| CSAG1 (chondrosarcoma associated gene 1) | 1 | -1.85 | inactive |
| CSAG1 (chondrosarcoma associated gene 1) | 2 | -2.13 | inactive |
| CSAG1 (chondrosarcoma associated gene 1) | 3 | 2.05 | inactive |
| PLXNB1 (plexin B1) | 1 | 0.249 | inactive |
| PLXNB1 (plexin B1) | 2 | -2.36 | inactive |
| PLXNB1 (plexin B1) | 3 | -0.355 | inactive |

Entries above whose gene name starts with O or o:
| gene knocked down | siRNA no. | total luciferase, z-score | Call |
| --- | --- | --- | --- |
| OLIG3 (oligodendrocyte transcription factor 3) | 1 | -0.747 | inactive |
| OLIG3 (oligodendrocyte transcription factor 3) | 2 | 0.115 | inactive |
| OLIG3 (oligodendrocyte transcription factor 3) | 3 | 0.799 | inactive |
